Data on 1 molecule can be found in publication PMC11500415, “Chemical inhibition of stomatal differentiation by perturbation of the master-regulatory bHLH heterodimer via an ACT-Like domain” (Nature Communications, 2024).

Results are given in words; binding and its absence hold for the method and conditions named. Binding can be weak; no strength is given. Where a sequence is shown, tags or fusion partners need not be part of it.

The target in this test is FAMA lacking its N-terminal activation domain, yeast two-hybrid fusion (Arabidopsis thaliana). In words: two-hybrid; Matchmaker Gal4 system, yeast AH109; growth on SD -Trp -Leu -His with 3-AT (1 mM) and quantitative α-galactosidase assay; with 0, 10, 50, 100 μM Stomidazolone (diminishes, dose-dependent) or SIM3* (no effect).

B1: SCREAM (SCRM), yeast two-hybrid fusion (protein, UniProt Q9LSE2 1-494)
chain: MGLDGNNGGGVWLNGGGGEREENEEGSWGRNQEDGSSQFKPMLEGDWFSSNQPHPQDLQMLQNQPDFRYFGGFPFNPNDNLLLQHSIDSSSSCSPSQAFSLDPSQQNQFLSTNNNKGCLLNVPSSANPFDNAFEFGSESGFLNQIHAPISMGFGSLTQLGNRDLSSVPDFLSARSLLAPESNNNNTMLCGGFTAPLELEGFGSPANGGFVGNRAKVLKPLEVLASSGAQPTLFQKRAAMRQSSGSKMGNSESSGMRRFSDDGDMDETGIEVSGLNYESDEINESGKAAESVQIGGGGKGKKKGMPAKNLMAERRRRKKLNDRLYMLRSVVPKISKMDRASILGDAIDYLKELLQRINDLHNELESTPPGSLPPTSSSFHPLTPTPQTLSCRVKEELCPSSLPSPKGQQARVEVRLREGRAVNIHMFCGRRPGLLLATMKALDNLGLDVQQAVISCFNGFALDVFRAEQCQEGQEILPDQIKAVLFDTAGYAGMI
Regarding B1, the binding result is “binds”.
